Experimental data as given in paper PMC8324811.
No constants are given. Whether binding was seen depends on the method and setting. For some of these results: In cells and extracts the contact can be indirect. Some binding calls cover weakened binding; strength is not graded here. One block for each substance: values may come before it.

Chains of the proteins cited; added tags and fusions are not shown.
UniProt Q9Y2Y4: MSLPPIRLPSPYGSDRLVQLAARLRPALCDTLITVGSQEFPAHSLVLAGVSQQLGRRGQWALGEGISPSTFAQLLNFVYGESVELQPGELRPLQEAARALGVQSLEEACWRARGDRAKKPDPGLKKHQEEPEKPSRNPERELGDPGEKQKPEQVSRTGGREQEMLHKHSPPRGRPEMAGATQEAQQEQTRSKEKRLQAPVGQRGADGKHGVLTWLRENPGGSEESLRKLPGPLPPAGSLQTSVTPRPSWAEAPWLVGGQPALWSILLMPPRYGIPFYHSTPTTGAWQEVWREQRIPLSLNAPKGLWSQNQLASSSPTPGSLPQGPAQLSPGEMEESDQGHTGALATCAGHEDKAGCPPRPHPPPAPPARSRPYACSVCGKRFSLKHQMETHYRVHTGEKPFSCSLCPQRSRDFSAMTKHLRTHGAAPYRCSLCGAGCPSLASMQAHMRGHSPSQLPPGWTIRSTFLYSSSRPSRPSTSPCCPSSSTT
UniProt P06537: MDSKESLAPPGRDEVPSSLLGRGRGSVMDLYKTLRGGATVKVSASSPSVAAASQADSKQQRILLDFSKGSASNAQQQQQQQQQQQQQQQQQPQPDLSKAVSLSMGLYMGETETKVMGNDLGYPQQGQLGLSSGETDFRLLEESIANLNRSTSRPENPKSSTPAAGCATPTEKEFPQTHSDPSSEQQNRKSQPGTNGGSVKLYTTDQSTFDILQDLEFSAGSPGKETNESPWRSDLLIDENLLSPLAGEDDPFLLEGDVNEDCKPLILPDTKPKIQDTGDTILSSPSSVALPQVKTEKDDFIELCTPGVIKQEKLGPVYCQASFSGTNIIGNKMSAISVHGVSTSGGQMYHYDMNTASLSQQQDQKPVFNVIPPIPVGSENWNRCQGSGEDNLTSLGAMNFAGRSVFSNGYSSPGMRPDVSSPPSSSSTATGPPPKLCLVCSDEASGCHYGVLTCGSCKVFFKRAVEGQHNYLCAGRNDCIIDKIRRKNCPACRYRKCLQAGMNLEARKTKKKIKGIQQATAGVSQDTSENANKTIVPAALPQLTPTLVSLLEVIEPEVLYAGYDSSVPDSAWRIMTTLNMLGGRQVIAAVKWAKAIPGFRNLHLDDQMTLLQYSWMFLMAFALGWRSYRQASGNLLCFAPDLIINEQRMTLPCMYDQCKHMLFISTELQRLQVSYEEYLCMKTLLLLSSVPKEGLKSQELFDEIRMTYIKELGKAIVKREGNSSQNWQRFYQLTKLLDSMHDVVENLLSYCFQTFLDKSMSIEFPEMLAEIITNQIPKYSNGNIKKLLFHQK
UniProt P04150: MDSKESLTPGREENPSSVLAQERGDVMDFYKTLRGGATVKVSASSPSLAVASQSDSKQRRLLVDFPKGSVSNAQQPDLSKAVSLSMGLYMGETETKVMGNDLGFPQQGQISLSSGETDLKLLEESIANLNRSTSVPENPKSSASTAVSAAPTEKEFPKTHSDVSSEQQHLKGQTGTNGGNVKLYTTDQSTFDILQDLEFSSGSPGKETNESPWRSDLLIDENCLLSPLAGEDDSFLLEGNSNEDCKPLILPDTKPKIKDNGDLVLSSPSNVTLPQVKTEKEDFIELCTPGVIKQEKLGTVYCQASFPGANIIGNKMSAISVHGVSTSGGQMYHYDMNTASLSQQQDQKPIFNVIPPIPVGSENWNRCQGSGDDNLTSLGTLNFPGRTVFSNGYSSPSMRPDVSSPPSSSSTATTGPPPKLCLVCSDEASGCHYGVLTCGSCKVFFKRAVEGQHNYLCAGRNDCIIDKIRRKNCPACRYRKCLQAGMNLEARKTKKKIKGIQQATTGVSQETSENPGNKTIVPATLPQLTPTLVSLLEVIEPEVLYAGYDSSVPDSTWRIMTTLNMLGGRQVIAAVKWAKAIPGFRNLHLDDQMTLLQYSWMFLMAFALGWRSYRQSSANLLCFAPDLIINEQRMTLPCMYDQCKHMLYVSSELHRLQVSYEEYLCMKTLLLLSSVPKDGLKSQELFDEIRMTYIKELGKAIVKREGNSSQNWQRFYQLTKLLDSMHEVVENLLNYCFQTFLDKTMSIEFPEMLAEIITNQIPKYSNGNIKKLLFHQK
UniProt Q9JKD9: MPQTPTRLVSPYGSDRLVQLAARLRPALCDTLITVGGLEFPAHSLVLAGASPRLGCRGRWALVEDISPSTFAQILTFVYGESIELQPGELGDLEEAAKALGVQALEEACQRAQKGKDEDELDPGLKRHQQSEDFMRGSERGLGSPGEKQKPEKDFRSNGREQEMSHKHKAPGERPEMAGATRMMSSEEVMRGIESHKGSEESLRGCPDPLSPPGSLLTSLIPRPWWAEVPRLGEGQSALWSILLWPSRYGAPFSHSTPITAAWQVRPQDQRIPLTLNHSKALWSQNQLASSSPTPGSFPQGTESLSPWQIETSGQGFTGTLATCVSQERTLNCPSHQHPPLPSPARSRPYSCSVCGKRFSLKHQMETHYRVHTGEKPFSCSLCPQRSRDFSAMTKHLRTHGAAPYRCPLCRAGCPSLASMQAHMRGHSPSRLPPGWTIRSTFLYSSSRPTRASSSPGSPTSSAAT

Tests used:
[1] = molecular target: flag-ZBTB32 (pMet-Flag-ZBTB32) (UniProt Q9Y2Y4); test: co-IP; HEK293T transfected with flag-ZBTB32 and CFP-GRα; vehicle or 1 μM Dex for 2h; IP with anti-Flag M2 beads overnight at 4°C; washes with 150 mM NaCl and 0.5% Triton X-100; blots with anti-GR and anti-Flag
[2] = molecular target: glucocorticoid receptor, endogenous in mouse adrenal glands (mouse (endogenous in adrenal glands)) (UniProt P06537); test: co-IP; adrenal gland lysates (RIPA) of mice injected with PBS or Dex (200 μg, 2h); IP with anti-GR (H300, sc-8992) on Dynabeads; blots with anti-GR (G5) and anti-ZBTB32; control IgG instead of anti-GR
[3] = molecular target: human glucocorticoid receptor alpha, MAPPIT bait (pCLG-human GRa) (human) (UniProt P04150); test: two-hybrid; one-to-one MAPPIT validation in HEK293T cells (3 independent experiments); GR bait cDNA and prey cDNA transfected; vehicle or 1 μM Dex for 24h; Luciferase reporter; empty vector as negative control
[4] = molecular target: human glucocorticoid receptor alpha, MAPPIT bait (pCLG-human GRa) (human) (UniProt P04150); test: two-hybrid; MAPPIT array screen in HEK293T cells; GR bait against a prey array (human ORFeome V5.1, 12,000 genes); independent screens without ligand and with ligand (Dex); STAT3-responsive rPAP-Luciferase reporter

binding [1]: binds
Substance: CFP-GRα (pMet7-CFP-GRa) (from UniProt P04150 1-777)

binding [2]: binds
Substance: ZBTB32, endogenous in mouse adrenal glands (from UniProt Q9JKD9 1-465)

binding [3]: binds
binding [4]: binds
Substance: human ZBTB32, MAPPIT prey (pCLG-human ZBTB32) (from UniProt Q9Y2Y4 1-487)
